Here are results for 1 substance from paper PMC11821008.

Results are given in words; binding and its absence hold for the method and conditions named. Binding seen in cells or lysates may run through a third protein. Some binding calls cover weakened binding; strength is not graded here.

The test has as its target sequestosome-1/p62 (human (endogenous in H460)) (UniProt Q13501). The test is described as follows: co-IP; H460 cells exposed to CK (30 µg/mL) for 12 h; 800 µg of lysate protein; IP with p62, ubiquitin (Ub) or mouse IgG antibodies, immunoblot for SIRT6 (n = 2).

For the substance “Silent information regulator 6 (SIRT6) (from UniProt Q8N6T7 1-355)”, the binding entry is “binds”.
